Source: the supplement of paper PMC8732350
Where “and” joins values, the source holds several entries; their conditions need not be identical. Equal entries are not always repeated. Structures can show the parent of a compound that is named as a salt. ± gives the standard deviation of the averaged measurements. Some of the results follow. Repeats in this data set agree poorly, so a single value says little.

system: A549; assay: surface PD-L1 immunofluorescence intensity relative to IFN-gamma-only control (ratio); higher = more PD-L1 expression; settings: 10 µM; exposure time 24 h; IFN-gamma 100 ng/mL

SMILES	surface PD-L1 immunofluorescence intensity
O=C(O)COC(=O)Cc1ccccc1Nc1c(Cl)cccc1Cl [Aceclofenac]	0.948
N=C(N)S/C=C\C(=O)O [ZAPA sulphate]	1.11
Cc1nnc(NS(=O)(=O)c2ccc(N)cc2)s1 [Sulfamethizole]	0.996
CN(C)c1ccc(/C=C2/C(=O)Nc3ccccc32)cc1	1.07
CCN1CCC[C@H]1CNC(=O)c1c(OC)ccc(Br)c1OC [Remoxipride hydrochloride]	1.07
CCN1CCC[C@H]1CNC(=O)c1c(OC)ccc(Br)c1OC [Remoxipride Hydrochloride]	1.01
CCN1CCN(c2cc3c(cc2F)c(=O)c(C(=O)O)cn3C2CC2)CC1 [Enrofloxacin]	0.92
COc1ccccc1S(=O)(=O)Nc1ccc2c(c1)CN(C)C(=O)N2	0.93
CC1CC(OC(=O)C(O)c2ccccc2)CC(C)(C)N1C (stereo not given) [Eucatropine hydrochloride]	0.966
NCCCC[C@H](N[C@@H](CCc1ccccc1)C(=O)O)C(=O)N1CCC[C@H]1C(=O)O [Lisinopril]	0.94 ± 0.076
CC(C)(C)NC[C@H](O)COc1nsnc1N1CCOCC1 [Timolol maleate salt]	1.06
CC(C)(C)NC[C@H](O)COc1nsnc1N1CCOCC1 [(S)-Timolol maleate]	1.11
O=C(Nc1cccc2c(=O)cc(-c3nnn[nH]3)oc12)c1ccc(OCCCCc2ccccc2)cc1 [Pranlukast]	0.919 ± 0.088
NC(=O)CC[C@@H](N)C(=O)O [D-glutamine]	0.9
CC(C)[C@H]1C(=O)N[C@@H](CCCNC(=N)N)C(=O)NCC(=O)N[C@@H](CC(=O)O)C(=O)N[C@H](Cc2ccccc2)C(=O)N1C	1.08
CCOC(=O)OC(C)OC(=O)[C@@H]1N2C(=O)[C@@H](NC(=O)[C@H](N)c3ccccc3)[C@H]2SC1(C)C (stereo not given in full) [Bacampicillin hydrochloride]	1.01
CCOC(=O)[C@H](CCc1ccccc1)N[C@H]1CCc2ccccc2N(CC(=O)O)C1=O [Benazepril HCl]	1.16
CCOC(=O)[C@H](CCc1ccccc1)N[C@H]1CCc2ccccc2N(CC(=O)O)C1=O [Benazepril hydrochloride]	1.07
COC1=C(OC)C(=O)C(CCCCCCCCCCO)=C(C)C1=O [Idebenone]	0.9667 ± 0.0042
CSc1nc(NC2CCCC2)c([N+](=O)[O-])c(NC2CCCC2)n1	1.03
CCOC(=O)c1ccc(OC(=O)CCCCCNC(=N)N)cc1 [Gabexate mesilate]	1.06
CCOC(=O)c1ccc(OC(=O)CCCCCNC(=N)N)cc1 [Gabexate mesylate]	0.897 ± 0.045
CC(C)(C)Cn1c(N)nc2ccc(-c3[nH]c(C(C)(C)C)nc3-c3ccc(F)cc3)nc21	0.957
CCCN[C@H]1CCc2nc(N)sc2C1 [Pramipexole]	1.02
CNC(=O)c1cc2c(cn1)[nH]c1ccccc12	1.06

SMILES	surface PD-L1 immunofluorescence intensity
Cc1cc(=O)oc2cc(O)ccc12 [Hymecromone]	0.945
CC(COc1ccccc1)N(CCCl)Cc1ccccc1 (stereo not given) [Phenoxybenzamine hydrochloride]	0.957
CCCNC(C)C(=O)Nc1ccccc1C (stereo not given) [Prilocaine hydrochloride]	0.925
COc1ccc(CN(CCN(C)C)c2ccccn2)cc1 [Mepyramine maleate]	1.01
COc1ccc(CN(CCN(C)C)c2ccccn2)cc1 [Pyrilamine maleate]	0.97
COc1cc(/C=C/C(=O)N2CCN(CC(=O)N3CCCC3)CC2)cc(OC)c1OC [Cinepazide maleate]	1.03
O=C(Nc1ccc(OC(F)(F)F)cc1)c1sccc1NCc1ccnc2ccccc12	1.11
CC(=O)c1ccc(S(=O)(=O)NC(=O)NC2CCCCC2)cc1 [Acetohexamide]	0.945
CCCCC[C@H](O)/C=C/[C@@H]1[C@@H](C/C=C\CCCC(=O)O)[C@@H](O)C[C@H]1O [Dinoprost trometamol]	0.961
CNC(=O)CN(CCN(CCN(CC(=O)O)CC(=O)NC)CC(=O)O)CC(=O)O.O.[Gd] [Gadodiamide (Omniscan)]	0.881
Cc1scc2c1N(C(=O)CN1CCN(C)CC1)c1ccccc1NC2=O [Telenzepine dihydrochloride]	1.09 ± 0.12
Cn1c(=O)c2nc[nH]c2n(C)c1=O [Theophylline monohydrate]	1.07
C=C1c2cccc(O)c2C(=O)C2=C(O)[C@]3(O)C(=O)C(C(N)=O)=C(O)[C@@H](N(C)C)[C@@H]3[C@@H](O)[C@H]12 [Methacycline hydrochloride]	1.07
c1ccc(C2CN3CCSC3=N2)cc1 (stereo not given) [Tetramisole hydrochloride]	0.992
c1ccc(C2CN3CCSC3=N2)cc1 (stereo not given) [Tetramisole HCl]	0.925
C[C@@H](N)[C@H]1CC[C@H](C(=O)Nc2ccncc2)CC1	0.992 and 0.972
CCc1cc(C(C)=O)c(O)cc1OCCCCCC(C)(C)c1nn[nH]n1	1
O=C(Cn1ccnc1[N+](=O)[O-])NCCO [Etanidazole]	1.07
O=c1cc(-c2ccc(O)cc2)oc2cc(O)cc(O)c12 [Apigenin]	1.05 ± 0.11
CO[C@H]1/C=C/O[C@@]2(C)Oc3c(C)c(O)c4c(c3C2=O)C2=NC3(CCN(CC(C)C)CC3)NC2=C(NC(=O)/C(C)=C\C=C\[C@H](C)[C@H](O)[C@@H](C)[C@@H](O)[C@@H](C)[C@H](OC(C)=O)[C@@H]1C)C4=O [Rifabutin (Mycobutin)]	1.11
CO[C@H]1/C=C/O[C@@]2(C)Oc3c(C)c(O)c4c(c3C2=O)C2=NC3(CCN(CC(C)C)CC3)NC2=C(NC(=O)/C(C)=C\C=C\[C@H](C)[C@H](O)[C@@H](C)[C@@H](O)[C@@H](C)[C@H](OC(C)=O)[C@@H]1C)C4=O [Rifabutin]	1.07
C[C@H](NC(=O)c1sccc1OCc1ccc(Cl)cc1)c1ccccc1	1
CNc1nc(Nc2cnn([C@H]3CCN(C4COC4)C[C@@H]3F)c2Cl)ncc1C(F)(F)F	1.07
N#Cc1ccccc1OCC(O)CNCCNC(=O)Nc1ccccc1 (stereo not given)	1.03
Clc1ccc(C(Cn2ccnc2)OCc2c(Cl)cccc2Cl)c(Cl)c1 (stereo not given) [Isoconazole]	0.946

SMILES	surface PD-L1 immunofluorescence intensity
NC(=O)N1c2ccccc2C=Cc2ccccc21 [Carbamazepine]	0.847
O=C(CCCCCCNC(=O)c1cnc(N(c2ccccc2)c2ccccc2)nc1)NO [Rocilinostat (ACY-1215)]	1.07
O=c1ncccn1[C@@H]1O[C@H](CO)[C@@H](O)[C@H]1O [Zebularine]	1.01 ± 0.094
CN(C)CCN(Cc1cccs1)c1ccccn1 [Methapyrilene hydrochloride]	1.09
COc1c(O[C@@H]2O[C@H](CO)[C@@H](O)[C@H](O)[C@H]2O)cc2c(c1OC)-c1ccc(SC)c(=O)cc1[C@@H](NC(C)=O)CC2 [Thiocolchicoside]	1.01
OC(c1ccccc1)C1CCN(CCc2ccccc2)CC1 (stereo not given)	1.07
COc1ccc(NC(=O)c2cc(OCCCN(C)C)nn2Cc2ccccc2)cc1 [CFM 1571 hydrochloride]	1.13
CC(=O)N[C@@H](CC(C)C)C(=O)O [N-Acetyl-L-leucine]	1.06
Nc1nc(=O)c2nc(CNc3ccc(C(=O)N[C@@H](CCC(=O)O)C(=O)O)cc3)cnc2[nH]1 [Folic acid]	0.953
C=C1CC[C@H](O)C/C1=C/C=C1\CCC[C@]2(C)[C@@H]([C@H](C)CCCC(C)(C)O)CC[C@@H]12 [25-Hydroxyvitamin D3]	0.973
C=C1CC[C@H](O)C/C1=C/C=C1\CCC[C@]2(C)[C@@H]([C@H](C)CCCC(C)(C)O)CC[C@@H]12 [Calcifediol]	1.03
O=C(NCCS(=O)(=O)c1ccc(C(F)(F)F)cn1)c1ccc(Cl)cc1	1.14
Nc1nc(F)nc2c1ncn2[C@@H]1O[C@H](CO)[C@@H](O)[C@@H]1O [Fludarabine]	0.977 ± 0.031
CC[C@H]1OC(=O)[C@H](C)[C@@H](O[C@H]2C[C@@](C)(OC)[C@@H](O)[C@H](C)O2)[C@H](C)[C@@H](O[C@@H]2O[C@H](C)C[C@H](N(C)C)[C@H]2O)[C@](C)(O)C[C@@H](C)/C(=N\OCOCCOC)[C@H](C)[C@@H](O)[C@]1(C)O [Roxithromycin (Roxl-150)]	1.02
CC[C@H]1OC(=O)[C@H](C)[C@@H](O[C@H]2C[C@@](C)(OC)[C@@H](O)[C@H](C)O2)[C@H](C)[C@@H](O[C@@H]2O[C@H](C)C[C@H](N(C)C)[C@H]2O)[C@](C)(O)C[C@@H](C)/C(=N\OCOCCOC)[C@H](C)[C@@H](O)[C@]1(C)O [Roxithromycin]	0.939
O=C1CN2Cc3c(ccc(Cl)c3Cl)N=C2N1 [Anagrelide HCl]	1.02
CC(C)NCC(O)COc1ccc(COCCOC(C)C)cc1 (stereo not given) [Bisoprolol fumarate]	1.13
COc1ccc(-c2cc(=O)c3c(O)cc(O)cc3o2)cc1O [Diosmetin (Luteolin 4-methyl ether)]	1.19
O=C(NCCNCC(O)COc1ccc(O)cc1)N1CCOCC1 (stereo not given) [Xamoterol hemifumarate]	1.07
CN(C)CCOC1=Cc2ccccc2Sc2ccc(Cl)cc21 [Zotepine]	0.944
CCN(Cc1ccncc1)C(=O)C(CO)c1ccccc1 (stereo not given) [Tropicamide]	1.06
OC(CCN1CCCCC1)(c1ccccc1)C1CC2C=CC1C2 (stereo not given) [Biperiden hydrochloride]	0.996
OC(CCN1CCCCC1)(c1ccccc1)C1CC2C=CC1C2 (stereo not given) [Biperiden HCl]	1.02
Cc1ncc([N+](=O)[O-])n1CCO [Metronidazole]	0.863
CCN(CC)CC#CCOC(=O)C(O)(c1ccccc1)C1CCCCC1 (stereo not given) [Oxybutynin chloride]	0.867

Taken from the listing for reference:
SMILES	surface PD-L1 immunofluorescence intensity
C=C1CC[C@H](O)C/C1=C/C=C1\CCC[C@]2(C)[C@@H]([C@H](C)CCCC(C)(C)O)CC[C@@H]12 [25-Hydroxyvitamin D3]	0.973
C=C1CC[C@H](O)C/C1=C/C=C1\CCC[C@]2(C)[C@@H]([C@H](C)CCCC(C)(C)O)CC[C@@H]12 [Calcifediol]	1.03
O=C(NCCS(=O)(=O)c1ccc(C(F)(F)F)cn1)c1ccc(Cl)cc1	1.14
Nc1nc(F)nc2c1ncn2[C@@H]1O[C@H](CO)[C@@H](O)[C@@H]1O [Fludarabine]	0.977 ± 0.031
